Our source for the binding values is PMC10899256.

Results are given in words; binding and its absence hold for the method and conditions named. Binding seen in cells or lysates may run through a third protein. Some binding calls cover weakened binding; strength is not graded here. Where a sequence is shown, tags or fusion partners need not be part of it.

In this test the target is T1, Flag-LKB1 (full-length LKB1) (human) (UniProt Q15831).
T1 sequence: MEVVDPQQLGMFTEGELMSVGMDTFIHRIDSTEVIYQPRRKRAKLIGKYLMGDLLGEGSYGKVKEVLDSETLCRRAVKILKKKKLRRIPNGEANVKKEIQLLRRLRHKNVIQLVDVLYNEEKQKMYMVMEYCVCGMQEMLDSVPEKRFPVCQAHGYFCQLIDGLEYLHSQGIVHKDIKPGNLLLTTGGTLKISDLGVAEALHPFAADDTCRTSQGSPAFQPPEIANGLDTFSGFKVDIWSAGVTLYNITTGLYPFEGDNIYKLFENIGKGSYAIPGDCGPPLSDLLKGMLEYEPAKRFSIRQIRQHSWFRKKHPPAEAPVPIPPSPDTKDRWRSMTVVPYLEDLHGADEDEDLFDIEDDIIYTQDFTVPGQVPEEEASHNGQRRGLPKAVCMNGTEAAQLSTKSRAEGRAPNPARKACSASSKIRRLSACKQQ
The test is described as follows: co-IP; co-transfected HEK293T; lysate in NETN buffer, anti-Flag Affinity Gel overnight at 4 °C, immunoblot.

B1: mCherry-TBC1D23 3K (K632E/K633E/K634E) (protein, UniProt Q9NUY8-2 1-684)
chain: MAEGEDVPPLPTSSGDGWEKDLEEALEAGGCDLETLRNIIQGRPLPADLRAKVWKIALNVAGKGDSLASWDGILDLPEQNTIHKDCLQFIDQLSVPEEKAAELLLDIESVITFYCKSRNIKYSTSLSWIHLLKPLVHLQLPRSDLYNCFYAIMNKYIPRDCSQKGRPFHLFRLLIQYHEPELCSYLDTKKITPDSYALNWLGSLFACYCSTEVTQAIWDGYLQQADPFFIYFLMLIILVNAKEVILTQESDSKEEVIKFLENTPSSLNIEDIEDLFSLAQYYCSKTPASFRKDNHHLFGSTLLGIKDDDADLSQALCLAISVSEILQANQLQGEGVRFFVVDCRPAEQYNAGHLSTAFHLDSDLMLQNPSEFAQSVKSLLEAQKQSIESGSIAGGEHLCFMGSGREEEDMYMNMVLAHFLQKNKEYVSIASGGFMALQQHLADINVDGPENGYGHWIASTSGSRSSINSVDGESPNGSSDRGMKSLVNKMTVALKTKSVNVREKVISFIENTSTPVDRHVSSSDRVGKPYRGVKPVFSIGDEEEYDTDEIDSSSMSDDDRKEVVNIQTWINKPDVKHHFPCKEVKESGHMFPSHLLVTATHMYCLREIVSRKGLAYIQSRQALNSVVKITSEEEHPELITFKYGNSSASGIEILAIERYLIPNAGDATKAIKQQIMKVLDALES
As for B1, the binding result is given as “binds weakly”.
